Assay [1] concerns the target T1, Recombinant FLAG-tagged NEIL2 (NEIL2-FLAG) from h358 cells (UniProt Q969S2).
T1 sequence: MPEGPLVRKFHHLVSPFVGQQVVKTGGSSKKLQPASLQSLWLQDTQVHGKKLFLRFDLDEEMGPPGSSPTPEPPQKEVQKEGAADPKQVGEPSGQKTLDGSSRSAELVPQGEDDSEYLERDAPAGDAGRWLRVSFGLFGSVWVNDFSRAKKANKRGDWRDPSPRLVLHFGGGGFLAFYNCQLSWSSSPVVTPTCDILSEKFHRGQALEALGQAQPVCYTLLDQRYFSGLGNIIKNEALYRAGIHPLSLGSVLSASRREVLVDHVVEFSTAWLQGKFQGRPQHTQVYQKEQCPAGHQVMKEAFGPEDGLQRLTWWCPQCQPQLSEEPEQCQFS
Briefly: co-IP; anti-FLAG beads preincubated 1 h at 4 °C with whole cell lysates of h358 cells expressing control or NEIL2-FLAG vector, washed, then incubated 1 h at 4 °C with 1 μg rHis-RelA or GST-tagged RelA domains in 300 μl IP buffer (25 mM Tris-HCl pH 7.5, 150 mM NaCl, 1% Triton X-100, 5% glycerol, 1 mM DTT); immunoblot with anti-RelA, FLAG or GST; both purified.

Protein sequences, listed by entry. Tags and fused reporters are not part of them. Lines headed by an entry give the natural chain unless they say otherwise; changes in a name come on top.
UniProt Q04206: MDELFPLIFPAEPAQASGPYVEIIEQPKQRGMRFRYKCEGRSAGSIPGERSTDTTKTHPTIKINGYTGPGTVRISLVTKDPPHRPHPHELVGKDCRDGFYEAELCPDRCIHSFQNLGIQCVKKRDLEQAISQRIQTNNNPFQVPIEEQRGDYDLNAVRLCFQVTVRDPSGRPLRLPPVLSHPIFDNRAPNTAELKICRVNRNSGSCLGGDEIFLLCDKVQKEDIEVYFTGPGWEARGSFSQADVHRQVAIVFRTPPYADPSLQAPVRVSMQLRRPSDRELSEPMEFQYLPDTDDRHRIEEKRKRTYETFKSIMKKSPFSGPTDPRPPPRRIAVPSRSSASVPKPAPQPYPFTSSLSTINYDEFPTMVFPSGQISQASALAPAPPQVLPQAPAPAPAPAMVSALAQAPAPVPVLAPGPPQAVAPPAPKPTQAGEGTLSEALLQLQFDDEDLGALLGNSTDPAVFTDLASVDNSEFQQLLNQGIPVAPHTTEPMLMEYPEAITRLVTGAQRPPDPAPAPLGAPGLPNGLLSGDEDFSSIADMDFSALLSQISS

Assay [2] deals with T2, C-terminal FLAG-tagged Nei-like DNA glycosylase 2 (NEIL2-FLAG), stably expressed in BEAS-2B cells (UniProt Q969S2).
T2 sequence: T1 sequence
Briefly: co-IP; anti-FLAG beads incubated with nuclear extracts of BEAS2B cells stably expressing NEIL2-FLAG, after TNFα treatment; immunoblot with antibodies against RelA or FLAG. A general note: In western blotting, separated proteins are transferred to a membrane and probed.

These are yes or no findings as the source states them, for the method shown. For part of these data: Binding seen in cells or lysates may run through a third protein. Some entries that bind do so weakly or less than the wild type. Tags and fused reporters may be left off the sequences shown.

Turning to “GST-tagged transcription-activation domain of RelA (GST-TAD) (from UniProt Q04206 429-551) (domain or fragment)”, the binding result in assay [1] is recorded as “no binding (tested: 1 μg in 300 μl of IP buffer)”.
Still for that read-out and setting: with “Recombinant full-length His-tagged RelA (rHis-RelA) (from UniProt Q04206 1-551)” the entry was “binds”.
As for “RelA (NF-κB p65), endogenous in BEAS-2B cells (from UniProt Q04206 1-551)”, the binding result in assay [2] was “binds”.

Values taken from PMC8164026, “Intrapulmonary administration of purified NEIL2 abrogates NF-κB–mediated inflammation”.
